From PMC3517540, “Versatile Membrane Deformation Potential of Activated Pacsin” (PLoS ONE, 2012)
Results are given in words; binding and its absence hold for the method and conditions named. Sequences can lack the tags named with a protein.

The chains behind the UniProt entries cited, without tags or fusion partners. Where a name states a change or a piece, a line headed by the entry shows the natural chain unless it says otherwise.
UniProt Q9BY11: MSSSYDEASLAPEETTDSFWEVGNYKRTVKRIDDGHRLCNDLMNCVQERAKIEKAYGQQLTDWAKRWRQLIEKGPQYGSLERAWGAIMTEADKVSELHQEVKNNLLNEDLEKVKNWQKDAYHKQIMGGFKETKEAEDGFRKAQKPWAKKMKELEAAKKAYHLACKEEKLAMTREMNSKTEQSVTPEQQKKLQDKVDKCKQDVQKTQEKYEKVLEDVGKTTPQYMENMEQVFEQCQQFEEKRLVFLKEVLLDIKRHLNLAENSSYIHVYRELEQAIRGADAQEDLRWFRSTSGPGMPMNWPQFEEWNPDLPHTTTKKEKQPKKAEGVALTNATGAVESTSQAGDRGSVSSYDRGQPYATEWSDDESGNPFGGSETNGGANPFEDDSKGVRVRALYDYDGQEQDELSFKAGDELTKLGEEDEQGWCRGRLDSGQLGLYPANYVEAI

Columns and labels:
[1] = molecular target: T1, GST-PRD^trunc2 (mouse dynamin-1 PRD aa747-780 fused to GST) (mouse) (UniProt P39053); test: pull-down; GST-PRD baits on GST SpinTrap resin, purified pacsin-1 prey 2 h at 4°C; 25 mM Tris-Cl pH 7.5, 100 mM NaCl; eluted with 10 mM glutathione; SDS-PAGE and Coomassie staining; both purified
T1 sequence: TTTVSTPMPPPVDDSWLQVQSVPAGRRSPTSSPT

[2] = molecular target: T2, Mouse dynamin-1 proline-rich domain (residues 747-842) fused to GST (mouse) (UniProt P39053); test: SEC; pacsin-1 (40 µM) and GST-PRD (80 µM) incubated for 15 min, then size-exclusion chromatography; fractions analysed by SDS-PAGE and Coomassie staining; both purified
T2 sequence: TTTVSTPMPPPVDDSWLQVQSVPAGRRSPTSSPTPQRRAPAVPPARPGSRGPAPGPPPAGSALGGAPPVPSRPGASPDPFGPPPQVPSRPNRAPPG

Substance: Human full-length pacsin-1 (from UniProt Q9BY11 1-444)
- binding [1]: no binding

Substance: Human pacsin-1 with the single-point mutation P437L in the SH3 domain (from UniProt Q9BY11 1-444)
- binding [2]: no binding
